The supplement of paper PMC6078165
Values are relative to the signal before dosing, not to a vehicle control; the signal also falls without drug.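 Labels refer to human fibroblasts, largely primary: uterine (C12385, HUF), lung (H6013), bone (Hs27A), adrenal (HADF), skin (WS1), plus mammary HMF and breast cancer-associated Hs343T. Cancer lines are basal-like or mesenchymal-like triple-negative breast cancer. The paper counts as hits responses shifting over 3x the replicate standard deviation. The tissue of the other fibroblasts is not given here.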

System: HCC1143
Test: relative JC-1 red fluorescence (viability) vs pre-drug, coculture with fibroblast (fraction); higher = more viable cancer cells
Description: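 JC-1 labelled TNBC cells cocultured 1:1 (1,500 cells each) with CellTrace Violet stained primary or stromal fibroblasts in 384-well plates in FluoroBrite medium, treated with one of 42 anticancer drugs at 0.1, 1, 10 or 100 uM. JC-1 red fluorescence (mitochondrial integrity in cancer cells only) was read by plate reader every 8 h for 72 h. Values are normalised to each well's pre-drug value. The stock of one drug was tenfold lower, so its dose labels may be too high.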

CC(C)C[C@H](NC(=O)[C@H](Cc1ccccc1)NC(=O)c1cnccn1)B(O)O [Bortezomib]
relative JC-1 red fluorescence
Conditions | 8 h | 16 h | 24 h | 32 h | 40 h | 48 h | 56 h | 64 h | 72 h
0.1 µM, coculture fibroblast: C12385 | 0.7754 | 0.645 | 0.615 | 0.58 | 0.561 | 0.597 | 0.602 | 0.633 | 0.668
0.1 µM, coculture fibroblast: H6013 | 0.679 | 0.54 | 0.4964 | 0.458 | 0.468 | 0.507 | 0.505 | 0.519 | 0.438
0.1 µM, coculture fibroblast: H6019 | 0.722 | 0.617 | 0.64 | 0.64 | 0.649 | 0.704 | 0.714 | 0.735 | 0.749
0.1 µM, coculture fibroblast: H6076 | 0.826 | 0.701 | 0.65 | 0.702 | 0.637 | 0.674 | 0.672 | 0.668 | 0.728
0.1 µM, coculture fibroblast: H6231 | 0.7993 | 0.732 | 0.618 | 0.633 | 0.548 | 0.538 | 0.512 | 0.493 | 0.512
0.1 µM, coculture fibroblast: HADF | 0.706 | 0.569 | 0.504 | 0.463 | 0.421 | 0.431 | 0.426 | 0.43 | 0.364
0.1 µM, coculture fibroblast: HCFa | 0.807 | 0.684 | 0.643 | 0.62 | 0.617 | 0.636 | 0.621 | 0.609 | 0.519
0.1 µM, coculture fibroblast: HCPF | 0.8065 | 0.745 | 0.629 | 0.6 | 0.522 | 0.513 | 0.489 | 0.47 | 0.499
0.1 µM, coculture fibroblast: HHSteC | 0.817 | 0.661 | 0.587 | 0.528 | 0.511 | 0.512 | 0.49 | 0.484 | 0.408
0.1 µM, coculture fibroblast: HMF | 0.824 | 0.726 | 0.596 | 0.609 | 0.51 | 0.516 | 0.524 | 0.518 | 0.543
0.1 µM, coculture fibroblast: HPFa | 0.815 | 0.634 | 0.596 | 0.546 | 0.53 | 0.564 | 0.561 | 0.574 | 0.593
0.1 µM, coculture fibroblast: HUF | 0.739 | 0.565 | 0.493 | 0.445 | 0.426 | 0.445 | 0.4329 | 0.437 | 0.443
0.1 µM, coculture fibroblast: Hs5 | 0.869 | 0.754 | 0.684 | 0.681 | 0.572 | 0.545 | 0.525 | 0.509 | 0.547
0.1 µM, coculture fibroblast: Hs27A | 0.677 | 0.613 | 0.587 | 0.58 | 0.551 | 0.596 | 0.575 | 0.58 | 0.475
0.1 µM, coculture fibroblast: Hs343T | 0.837 | 0.7695 | 0.676 | 0.677 | 0.591 | 0.595 | 0.578 | 0.576 | 0.597
0.1 µM, coculture fibroblast: WS1 | 0.714 | 0.5501 | 0.499 | 0.458 | 0.435 | 0.461 | 0.463 | 0.486 | 0.512
1 µM, coculture fibroblast: C12385 | 0.7383 | 0.506 | 0.357 | 0.301 | 0.265 | 0.253 | 0.247 | 0.241 | 0.243
1 µM, coculture fibroblast: H6013 | 0.627 | 0.423 | 0.373 | 0.346 | 0.337 | 0.358 | 0.342 | 0.344 | 0.28
1 µM, coculture fibroblast: H6019 | 0.695 | 0.518 | 0.424 | 0.39 | 0.375 | 0.39 | 0.385 | 0.388 | 0.391
1 µM, coculture fibroblast: H6076 | 0.791 | 0.644 | 0.484 | 0.518 | 0.44 | 0.449 | 0.449 | 0.445 | 0.482
1 µM, coculture fibroblast: H6231 | 0.7786 | 0.648 | 0.47874 | 0.495 | 0.408 | 0.394 | 0.365 | 0.344 | 0.34
1 µM, coculture fibroblast: HADF | 0.705 | 0.538 | 0.485 | 0.464 | 0.445 | 0.458 | 0.442 | 0.447 | 0.369
1 µM, coculture fibroblast: HCFa | 0.7352 | 0.538 | 0.493 | 0.476 | 0.473 | 0.474 | 0.442 | 0.42 | 0.345
1 µM, coculture fibroblast: HCPF | 0.778 | 0.7332 | 0.547 | 0.488 | 0.431 | 0.398 | 0.355 | 0.328 | 0.329
1 µM, coculture fibroblast: HHSteC | 0.771 | 0.5438 | 0.5004 | 0.4486 | 0.415 | 0.399 | 0.366 | 0.354 | 0.283
1 µM, coculture fibroblast: HMF | 0.7737 | 0.7 | 0.451 | 0.4144 | 0.317 | 0.297 | 0.275 | 0.269 | 0.28
1 µM, coculture fibroblast: HPFa | 0.812 | 0.524 | 0.454 | 0.424 | 0.375 | 0.377 | 0.353 | 0.356 | 0.352
1 µM, coculture fibroblast: HUF | 0.785 | 0.544 | 0.45 | 0.394 | 0.365 | 0.364 | 0.341 | 0.332 | 0.325
1 µM, coculture fibroblast: Hs5 | 0.846 | 0.726 | 0.611 | 0.62 | 0.515 | 0.489 | 0.465 | 0.443 | 0.453
1 µM, coculture fibroblast: Hs27A | 0.65 | 0.467 | 0.454 | 0.48 | 0.433 | 0.458 | 0.425 | 0.415 | 0.325
1 µM, coculture fibroblast: Hs343T | 0.7964 | 0.766 | 0.555 | 0.486 | 0.412 | 0.38 | 0.333 | 0.317 | 0.319
1 µM, coculture fibroblast: WS1 | 0.6904 | 0.459 | 0.345 | 0.293 | 0.267 | 0.264 | 0.251 | 0.253 | 0.259
10 µM, coculture fibroblast: C12385 | 0.666 | 0.474 | 0.403 | 0.365 | 0.332 | 0.336 | 0.328 | 0.319 | 0.319
10 µM, coculture fibroblast: H6013 | 0.648 | 0.482 | 0.435 | 0.401 | 0.416 | 0.441 | 0.439 | 0.439 | 0.354
10 µM, coculture fibroblast: H6019 | 0.578 | 0.415 | 0.368 | 0.329 | 0.316 | 0.328 | 0.328 | 0.329 | 0.33
10 µM, coculture fibroblast: H6076 | 0.7706 | 0.622 | 0.541 | 0.598 | 0.506 | 0.521 | 0.525 | 0.505 | 0.548
10 µM, coculture fibroblast: H6231 | 0.846 | 0.6716 | 0.524 | 0.58 | 0.432 | 0.42 | 0.391 | 0.369 | 0.375
10 µM, coculture fibroblast: HADF | 0.6263 | 0.452 | 0.378 | 0.321 | 0.289 | 0.293 | 0.274 | 0.267 | 0.188
10 µM, coculture fibroblast: HCFa | 0.679 | 0.448 | 0.3885 | 0.332 | 0.302 | 0.291 | 0.268 | 0.256 | 0.197
10 µM, coculture fibroblast: HCPF | 0.8239 | 0.698 | 0.5952 | 0.649 | 0.518 | 0.512 | 0.479 | 0.4521 | 0.4718
10 µM, coculture fibroblast: HHSteC | 0.729 | 0.534 | 0.436 | 0.373 | 0.361 | 0.356 | 0.332 | 0.322 | 0.251
10 µM, coculture fibroblast: HMF | 0.79 | 0.702 | 0.543 | 0.547 | 0.417 | 0.416 | 0.399 | 0.389 | 0.393
10 µM, coculture fibroblast: HPFa | 0.702 | 0.387 | 0.323 | 0.273 | 0.242 | 0.243 | 0.229 | 0.222 | 0.221
10 µM, coculture fibroblast: HUF | 0.701 | 0.457 | 0.342 | 0.273 | 0.2336 | 0.23 | 0.208 | 0.198 | 0.194
10 µM, coculture fibroblast: Hs5 | 0.819 | 0.651 | 0.54 | 0.554 | 0.438 | 0.419 | 0.4 | 0.377 | 0.398
10 µM, coculture fibroblast: Hs27A | 0.592 | 0.381 | 0.341 | 0.331 | 0.3048 | 0.3336 | 0.309 | 0.302 | 0.214
10 µM, coculture fibroblast: Hs343T | 0.799 | 0.637 | 0.475 | 0.476 | 0.3643 | 0.355 | 0.329 | 0.317 | 0.312
10 µM, coculture fibroblast: WS1 | 0.623 | 0.392 | 0.325 | 0.275 | 0.244 | 0.239 | 0.224 | 0.219 | 0.22
100 µM, coculture fibroblast: C12385 | 0.697 | 0.423 | 0.32 | 0.259 | 0.228 | 0.216 | 0.204 | 0.193 | 0.188
100 µM, coculture fibroblast: H6013 | 0.615 | 0.435 | 0.43 | 0.402 | 0.405 | 0.422 | 0.408 | 0.407 | 0.32
100 µM, coculture fibroblast: H6019 | 0.685 | 0.521 | 0.49 | 0.459 | 0.452 | 0.463 | 0.456 | 0.46 | 0.458
100 µM, coculture fibroblast: H6076 | 0.773 | 0.5494 | 0.432 | 0.465 | 0.391 | 0.3933 | 0.372 | 0.36 | 0.381
100 µM, coculture fibroblast: H6231 | 0.7996 | 0.665 | 0.515 | 0.578 | 0.447 | 0.432 | 0.396 | 0.368 | 0.367
100 µM, coculture fibroblast: HADF | 0.698 | 0.504 | 0.429 | 0.376 | 0.316 | 0.311 | 0.284 | 0.269 | 0.198
100 µM, coculture fibroblast: HCFa | 0.74 | 0.558 | 0.515 | 0.458 | 0.422 | 0.412 | 0.384 | 0.367 | 0.301
100 µM, coculture fibroblast: HCPF | 0.8 | 0.704 | 0.545 | 0.535 | 0.444 | 0.429 | 0.398 | 0.37 | 0.375
100 µM, coculture fibroblast: HHSteC | 0.8 | 0.587 | 0.541 | 0.485 | 0.449 | 0.437 | 0.402 | 0.382 | 0.302
100 µM, coculture fibroblast: HMF | 0.783 | 0.627 | 0.423 | 0.419 | 0.295 | 0.284 | 0.274 | 0.266 | 0.27
100 µM, coculture fibroblast: HPFa | 0.7455 | 0.465 | 0.398 | 0.37 | 0.323 | 0.32 | 0.294 | 0.288 | 0.281
100 µM, coculture fibroblast: HUF | 0.7463 | 0.503 | 0.408 | 0.306 | 0.273 | 0.268 | 0.238 | 0.225 | 0.219
100 µM, coculture fibroblast: Hs5 | 0.844 | 0.604 | 0.483 | 0.493 | 0.394 | 0.374 | 0.358 | 0.34 | 0.348
100 µM, coculture fibroblast: Hs27A | 0.566 | 0.368 | 0.332 | 0.345 | 0.296 | 0.312 | 0.288 | 0.275 | 0.201
100 µM, coculture fibroblast: Hs343T | 0.781 | 0.576 | 0.412 | 0.404 | 0.304 | 0.291 | 0.269 | 0.257 | 0.25
100 µM, coculture fibroblast: WS1 | 0.709 | 0.482 | 0.352 | 0.286 | 0.25 | 0.239 | 0.222 | 0.212 | 0.205
